Measured values taken from the supplement of paper PMC11348887.
Structures can show the parent of a compound that is named as a salt. The list shows a part of the results. Most values lie at the level of the controls, where differences are scatter.

tested on: hPSC-derived cortical neurons (WA09); experiment: nucleus area z-score vs screen plate; higher = larger nuclei (more mature); conditions: 5 µM; treatment: days 7-14 after plating, readout day 21

SMILES | nucleus area z-score
CC[C@@H](C)Nc1cc(C(=O)N[C@H]2C[C@H]3CC[C@@H](C2)N3c2ccc(C(=O)C3CC3)cn2)c(C)cc1C(N)=O | 2.22
CN[C@@H]1[C@@H](O[C@H]2O[C@H](CO)[C@@H](N)[C@H](O)[C@H]2O)OC2C[C@@H](N)[C@@H](O[C@H]3[C@H](O)[C@@H](O)[C@H](N)C[C@@H]3N)OC2[C@@H]1O (stereo partly drawn) [Apramycin Sulfate] | -2.37
COc1cc2ncnc(Nc3cccc(Cl)c3F)c2cc1OC(=O)N1CCN(C)C[C@H]1C | 0.0424
Cc1ccc(C(=O)Nc2ccc(CN3CCN(C)CC3)c(C(F)(F)F)c2)cc1C#Cc1cnc2[nH]ncc2c1 | -13.5
Cc1nc2n(c(=O)c1CCN1CCC(c3noc4cc(F)ccc34)CC1)CCCC2O (stereo not drawn) [Paliperidone] | 0.0316
C[n+]1ccccc1/C=N/O [Pralidoxime chloride] | 2.73
CN1CCN(C(=O)/C=C/c2ccc([N+](=O)[O-])o2)CC1 | -1.33
Cc1nc2n(c(=O)c1CCN1CCC(c3noc4cc(F)ccc34)CC1)CCCC2 [Risperidone] | -0.0848
CC(C)(C)c1cnc(CSc2cnc(NC(=O)C3CCNCC3)s2)o1 | -10.9
O=C1c2ccccc2C(=O)C1c1ccccc1 [Phenindione] | -0.203
COc1ccccc1OCC(O)CO (stereo not drawn) [Guaifenesin] | -0.136
CCCCCC(=O)O[C@]1(C(C)=O)CC[C@H]2[C@@H]3CCC4=CC(=O)CC[C@]4(C)[C@H]3CC[C@@]21C [Hydroxyprogesterone caproate] | -0.57
COc1cc2c(cc1OC)[C@@H]1Cc3ccc(OC)c(OC)c3CN1CC2 [Rotundine] | 4.71

Entries above with an aryl methoxy group (three):
SMILES | nucleus area z-score
COc1cc2ncnc(Nc3cccc(Cl)c3F)c2cc1OC(=O)N1CCN(C)C[C@H]1C | 0.0424
COc1ccccc1OCC(O)CO (stereo not drawn) [Guaifenesin] | -0.136
COc1cc2c(cc1OC)[C@@H]1Cc3ccc(OC)c(OC)c3CN1CC2 [Rotundine] | 4.71
